Results are given in words; binding and its absence hold for the method and conditions named. Some entries that bind do so weakly or less than the wild type. Sequences can lack the tags named with a protein.

This test has as its target T1, murine CD47 on CHO-K1-mCD47 cells (mouse) (UniProt Q61735).
T1 sequence: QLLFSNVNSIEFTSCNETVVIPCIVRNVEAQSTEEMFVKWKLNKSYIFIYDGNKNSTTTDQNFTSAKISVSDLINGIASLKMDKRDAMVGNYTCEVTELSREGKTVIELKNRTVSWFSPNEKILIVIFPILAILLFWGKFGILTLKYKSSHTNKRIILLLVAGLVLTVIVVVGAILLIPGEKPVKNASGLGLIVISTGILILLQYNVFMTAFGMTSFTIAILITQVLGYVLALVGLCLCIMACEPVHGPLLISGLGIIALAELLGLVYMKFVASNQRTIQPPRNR
Kind of test: flow cytometry on cells; blocking assay: 100 ng SIRPα-Fc or 50 ng PD-L1-Fc pre-incubated with serially diluted SMC18 in PBS 7.2 (1% DMSO) on ice 30 min, added to CHO-K1-CD47 or CHO-K1-PD-1 cells on ice 30 min; PE anti-human IgG (Fc) detection, MFI; only the binder purified.

B1: mouse SIRPα-Fc protein (Fc fusion, UniProt P97797 32-373)
chain: KELKVTQPEKSVSVAAGDSTVLNCTLTSLLPVGPIRWYRGVGPSRLLIYSFAGEYVPRIRNVSDTTKRNNMDFSIRISNVTPADAGIYYCVKFQKGSSEPDTEIQSGGGTEVYVLAKPSPPEVSGPADRGIPDQKVNFTCKSHGFSPRNITLKWFKDGQELHPLETTVNPSGKNVSYNISSTVRVVLNSMDVNSKVICEVAHITLDRSPLRGIANLSNFIRVSPTVKVTQQSPTSMNQVNLTCRAERFYPEDLQLIWLENGNVSRNDTPKNLTKNTDGTYNYTSLFLVNSSAHREDVVFTCQVKHDQQPAITRNHTVLGFAHSSDQGSMQTFPDNNATHNWN
Consider B1, for which the binding entry is listed as “binds”.

Source of the values: article PMC10926604, “Discovery of a novel small molecule as CD47/SIRPα and PD-1/PD-L1 dual inhibitor for cancer immunotherapy” (Cell Communication and Signaling : CCS, 2024).
